Results as given in patent US20160123960A1, “METHOD FOR PREPARING THREE-DIMENSIONAL, ORGANOTYPIC CELL CULTURES AND USES THEREOF” (priority 2013, published 2016).
For at least one compound, name, drawing or mass did not settle the structure.

Tests used:
[1] = tested on: SW48 G13D (KRAS mutant) OTOCs; assay: 18F-FDG uptake over time in OTOCs, SW48 G13D; type: cell-based; conditions: 700 ng/ml, within 8 hour period
HCT-116 (KRAS mutant) = assay: In vivo response of HCT-116; conditions: HCT-116, data not shown
H460 (KRAS mutant) = assay: In vivo response of H460; conditions: H460, data not shown
SW48 OTOCs = assay: 18F-FDG uptake over time in OTOCs, SW48; type: cell-based; conditions: SW48 WT OTOCs, 700 ng/ml, within 8 hour period

SMILES: CC(C)C[C@H](NC(=O)CNC(=O)c1cc(Cl)ccc1Cl)B1OC(=O)C(CC(=O)O)(CC(=O)O)O1 [MLN9708]
- 18F-FDG uptake change [1]: lower FDG uptake
- response to proteasome inhibition (HCT-116 (KRAS mutant)): resistance
- response to proteasome inhibition (H460 (KRAS mutant)): resistance
- 18F-FDG uptake change (SW48 OTOCs): increase in FDG uptake
